This passage reports binding results from US20240209076A1.

Amino acid sequences for entries named in this document (tags omitted). Residues count along the entry.
UniProt P05231, residues 30-212: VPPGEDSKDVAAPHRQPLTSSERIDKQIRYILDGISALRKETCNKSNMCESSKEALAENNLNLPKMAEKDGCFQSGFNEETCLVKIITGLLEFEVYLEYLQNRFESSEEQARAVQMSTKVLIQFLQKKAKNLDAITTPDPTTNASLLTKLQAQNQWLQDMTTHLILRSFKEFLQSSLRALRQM

The target of this test is recombinant human IL-6 (human) (UniProt P05231). In words: SPR, purified antibody captured on Protein A, 37 C. In general terms: SPR reads the build-up and loss of mass on a sensor chip optically.

Changes are numbered by the printed parent chain. In names and notes the source's numbering stands. These are yes or no findings as the source states them, for the method shown. Some entries that bind do so weakly or less than the wild type.

B1: anti-IL-6 antibody, heavy chain S35H G66D L100S, light chain M32L/M50D/N52S/M88Q (antibody, V domains shown)
VH: EVQLVESGGGLVQPGGSLRLSCAASGFTFSPFAMHWVRQAPGKGLEWVAKISPGGSWTYYSDTVTDRFTFSLDTSKSTAYLQMNSLRAEDTAVYYCARQSWGYYALDIWGQGTLVTVSS
VL: DIQLTQSPSSLSASVGDRVTITCSASISVSYLYWYQQKPGKAPKLLIYDDSSLASGVPSRFSGSGSGTDFTLTISSLQPEDFATYYCQQWSGYPYTFGQGTKVEIK
B1: the binding entry was “binds”.

B2: anti-IL-6 antibody, heavy chain S35H G66D L100Q, light chain M32L/M50D/N52S/M88Q (antibody, V domains shown)
VH: B1 VH with S100Q
VL: B1 VL
For the molecule B2, the binding entry is on record as “binds”.

B3: anti-IL-6 antibody, heavy chain S35H G66D L100T, light chain M32L/M50D/N52S/M88Q (antibody, V domains shown)
VH: B1 VH with S100T
VL: B1 VL
On to B3, for which the binding result is given as “binds”.

B4: anti-IL-6 antibody, heavy chain S35H G66D L100K, light chain M32L/M50D/N52S/M88Q (antibody, V domains shown)
VH: B1 VH with S100K
VL: B1 VL
B4: the binding result is listed as “binds”.

B5: anti-IL-6 antibody, heavy chain S35H G66D L100G, light chain M32L/M50D/N52S/M88Q (antibody, V domains shown)
VH: B1 VH with S100G
VL: B1 VL
Turning to B5, the binding entry is given as “binds”.
